Assay results reported in patent US12251422B2, “Compositions and methods for treating neurological and other disorders” (Rush University Medical Center, priority 2018, dated 2025).

System: 5×FAD Tg mice
Assay: General locomotor activities of 5×FAD Tg mice
Type: in vivo, mouse
Conditions: 0.1 mg/kg body wt/2 d intranasal, 30 d

Structure (SMILES) | gross motor activities (number of movements, horizontal activity, rest time, stereotypy)
CC[C@H](C)[C@H](NC(=O)[C@H](CCCCN)NC(=O)[C@@H](NC(=O)[C@H](CCC(N)=O)NC(=O)[C@H](CCCNC(=N)N)NC(=O)[C@@H](N)CC(=O)O)[C@@H](C)CC)C(=O)N[C@@H](Cc1c[nH]c2ccccc12)C(=O)N[C@@H](Cc1ccccc1)C(=O)N[C@@H](CCC(N)=O)C(=O)N[C@@H](CC(N)=O)C(=O)N[C@@H](CCCNC(=N)N)C(=O)N[C@@H](CCCNC(=N)N)C(=O)N[C@@H](CCSC)C(=O)N[C@@H](CCCCN)C(=O)N[C@@H](Cc1c[nH]c2ccccc12)C(=O)N[C@@H](CCCCN)C(=O)N[C@@H](CCCCN)C(=O)N1CCC[C@H]1C(=O)NCC(=O)N[C@@H](Cc1c[nH]c2ccccc12)C(=O)N[C@@H](Cc1c[nH]cn1)C(=O)N[C@@H](CCC(N)=O)C(=O)N[C@@H](CC(=O)O)C(=O)O [mTIDM, drqikiwfqnrrmkwkkPGWHQD] | did not modulate
CC[C@H](C)[C@H](NC(=O)[C@H](CCCCN)NC(=O)[C@@H](NC(=O)[C@H](CCC(N)=O)NC(=O)[C@H](CCCNC(=N)N)NC(=O)[C@@H](N)CC(=O)O)[C@@H](C)CC)C(=O)N[C@@H](Cc1c[nH]c2ccccc12)C(=O)N[C@@H](Cc1ccccc1)C(=O)N[C@@H](CCC(N)=O)C(=O)N[C@@H](CC(N)=O)C(=O)N[C@@H](CCCNC(=N)N)C(=O)N[C@@H](CCCNC(=N)N)C(=O)N[C@@H](CCSC)C(=O)N[C@@H](CCCCN)C(=O)N[C@@H](Cc1c[nH]c2ccccc12)C(=O)N[C@@H](CCCCN)C(=O)N[C@@H](CCCCN)C(=O)N1CCC[C@H]1C(=O)NCC(=O)N[C@@H](C)C(=O)N[C@@H](Cc1c[nH]cn1)C(=O)N[C@@H](CCC(N)=O)C(=O)N[C@@H](CCCCN)C(=O)O [wtTIDM, drqikiwfqnrrmkwkkPGAHQK] | did not modulate
